Reference: patent US20230398178A1, “METHODS AND COMPOSITIONS FOR TREATING OR PREVENTING A VAGINAL INFECTION OF GARDNERELLA VAGINALIS” (Massachusetts Institute of Technology, priority 2022, published 2023)
Some results were stated once for a whole list of compounds, not compound by compound. Some compounds share one range, which may span the group rather than tell each member.

Test system: Gardnerella vaginalis ATCC 14018 mature biofilms
Assay: Disruption of established G. vaginalis biofilms (CFU of biofilm and supernatant fractions)
Format: cell-based
Settings: pre-established 24 h biofilms, 24 h treatment
Protocol: Gardnerella vaginalis 14018 ATCC strain was obtained from ATCC. Salivary MUC5B mucin was isolated and purified as described previously. Galactose and D-Fucose were obtained from Sigma-Aldrich. AnaeroPacks were purchased from VWR. Prior to the experiment, MUC5B mucin was weighed out and solubilized to desired concentration on a shaker overnight. To establish mature biofilms, an overnight preculture of Gardnerella vaginalis ATCC 14018 was diluted 1:20 into fresh NYC III medium with 1% glucose and incubated at 37° C. in the anaerobic chamber for 24 h. Before adding fresh solutions, a set of triplicate wells was sacrificed to quantify cell counts in supernatant and biofilm fraction at the 24 h timepoint. The spent supernatant was gently drained from the rest of the wells and fresh medium or mucin/monosaccharide solutions in medium were added on top of the bacterial biomass. Plate was gently rocked (100 rpm) for 24 h in the anaerobic atmosphere (generated with AnaeroPack, Mitsubishi in the airtight container) in the 37° C. incubator. After 24 h, the supernatant was removed into a separate plate and the biofilms were washed twice with […], sterile phosphate-buffer saline (PBS) and washes were combined with the supernatant (=supernatant fraction). Another […], of PBS was added to the biofilms, each well was vigorously scraped with P20 tip for 20 s and scraped biomass pipetted up and down to homogenize the solution (=biofilm fraction). Both supernatant and biofilm solutions were serially diluted, plated on BHI-agar (BHI=brain-heart infusion, 1.5% agar) and incubated in the anaerobic chamber 37° C. incubator. Colonies were counted after ˜48 h.

Molecule	decrease in the number of colony-forming units in the biofilm fraction
C[C@@H](O)[C@H](O)[C@H](O)[C@@H](O)C=O [D-fucose, 6-deoxy-D-galactose]	10-15 fold
O=C[C@H](O)[C@@H](O)[C@@H](O)[C@H](O)CO [galactose, D-galactose]	10-15 fold
MUC5B: mucin glycoprotein, predominant in cervicovaginal fluid, purified from pooled human saliva and reconstituted into gels	10-15 fold
